# Drug screen on melanoma cell lines: apoptosis marker

Data from the primary screen of doi:10.1371/journal.pone.0140310, rounded.

All values are for the listed drug together with YM155 (0.002 µM): COCC[n+]1c2c(n(Cc3cnccn3)c1C)C(=O)c1ccccc1C2=O

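Human melanoma cells were exposed to two drugs together for 72 h in 1,536-well plates and read by automated microscopy after fixing and staining. Each value is the cleaved-PARP-positive fraction of nuclei relative to DMSO-treated wells, in %, so that 100 equals the control and higher values mean more apoptosis. Every drug was used at one fixed concentration, the higher of two screened. No replicate spread is given; individual values may be noisy. The marker varies much from line to line, for technical or biological reasons.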
This is part of the screen, not chosen by result.
A dash means that no value is listed here.

| Second drug | WM3619 | 501mel | IST-MEL1 | A2058 | RVH-421 | SK-MEL-2 | WM451Lu | COLO 800 | SK-MEL-30 | A375 | RPMI-7951 | IPC-298 | LOX IMVI | WM115 | SK-MEL-5 |
|---|---|---|---|---|---|---|---|---|---|---|---|---|---|---|---|
| CC[C@]1(O)C[C@H]2CN(CCc3c([nH]c4ccccc34)[C@@](C(=O)OC)(c3cc4c(cc3OC)N(C=O)[C@H]3[C@@](O)(C(=O)OC)[C@H](OC(C)=O)[C@]5(CC)C=CCN6CC[C@]43[C@@H]65)C2)C1 at 0.0005 µM | 148 | - | 275 | 895 | 128 | 274 | 996 | 169 | 303 | 76.8 | 380 | 332 | 126 | 231 | 1890 |
| NC(=O)c1ccc(N(C(N)=O)c2c(F)cccc2F)nc1-c1ccc(F)cc1F at 2 µM | 97.3 | - | 85.5 | 788 | 91.4 | 929 | 344 | 136 | 123 | 81.2 | 91.0 | 190 | 161 | 255 | 653 |
| C[C@]1(O)C[C@@H](c2nc(-c3ccc4ccc(-c5ccccc5)nc4c3)c3c(N)nccn32)C1 at 2 µM | 109 | - | 194 | 795 | 169 | 904 | 270 | 280 | 342 | 55.4 | 261 | 279 | 90.3 | 572 | 3300 |
| CCCCCCCCCCCC1=C(O)C(=O)C=C(O)C1=O at 6 µM | 111 | 252 | 57.7 | 529 | 57.2 | 433 | 135 | 231 | 46.1 | 34.8 | 303 | 123 | 100 | 144 | 221 |
| Cc1cc(SCc2sc(-c3ccc(C(F)(F)F)c(F)c3)nc2C)ccc1OCC(=O)O at 10 µM | 108 | 58.5 | 122 | 515 | 142 | 598 | 169 | 97.4 | 116 | 51.2 | 166 | 155 | 233 | 60.3 | 317 |
| NC(=O)Nc1cc(-c2cccc(F)c2)sc1C(=O)N[C@H]1CCCNC1 at 0.1 µM | 342 | - | 183 | 2970 | 84.3 | 977 | 592 | 162 | 161 | - | 254 | 175 | 86.8 | 65.6 | 515 |
| CO[C@H]1C[C@@H]2CC[C@@H](C)[C@@](O)(O2)C(=O)C(=O)N2CCCC[C@H]2C(=O)O[C@H]([C@H](C)C[C@@H]2CC[C@@H](OCCO)[C@H](OC)C2)CC(=O)[C@H](C)/C=C(\C)[C@@H](O)[C@@H](OC)C(=O)[C@H](C)C[C@H](C)/C=C/C=C/C=C/1C at 0.1 µM | 171 | - | 79.3 | 334 | 91.3 | 190 | 247 | 118 | 138 | 201 | 467 | 212 | 23.4 | 177 | 775 |
| CNC(=O)c1cc(Oc2ccc(NC(=O)Nc3ccc(Cl)c(C(F)(F)F)c3)cc2)ccn1 at 2 µM | 98.4 | - | 241 | 439 | 112 | 456 | 321 | 69.4 | 98.9 | 79.3 | 417 | 218 | 40.2 | 140 | 595 |
| c1cc(-c2cnn3cc(-c4ccc(OCCN5CCCCC5)cc4)cnc23)ccn1 at 2 µM | 146 | 384 | 109 | 906 | 77.8 | 276 | 184 | 89.3 | 168 | 283 | 168 | 496 | 176 | 270 | 200 |
| Cc1ccc(Nc2nccc(N(C)c3ccc4c(C)n(C)nc4c3)n2)cc1S(N)(=O)=O at 2 µM | 92.1 | - | 106 | 1520 | 81.9 | 194 | 447 | 157 | 81.9 | 885 | 105 | 124 | 108 | 349 | 2610 |
| Nc1cccc2c1CN(C1CCC(=O)NC1=O)C2=O (centres undefined) at 5 µM | 164 | - | 138 | 744 | 149 | 277 | 258 | 245 | 255 | 88.7 | 392 | 184 | 182 | 204 | 1350 |
| CCc1ccc(CCOc2ccc(CC3SC(=O)NC3=O)cc2)nc1 (centres undefined) at 10 µM | 85.5 | 155 | 133 | 971 | 249 | 536 | 238 | 74.7 | 83.0 | 186 | 152 | 272 | 124 | 132 | 1230 |
| O=C(/C=C/c1cccnc1)NCCCCC1CCN(C(=O)c2ccccc2)CC1 at 0.05 µM | 134 | - | 408 | 878 | 159 | 2920 | 178 | 232 | 237 | 131 | 263 | 1530 | 37.4 | 202 | 1580 |
| CCN(CC)CCNC(=O)c1c(C)[nH]c(/C=C2\C(=O)Nc3ccc(F)cc32)c1C at 2 µM | 111 | - | 102 | 360 | 84.1 | 150 | 728 | 220 | 159 | 163 | 146 | 197 | 67.1 | 510 | 473 |
| CC1(C)CCC(c2ccc(Cl)cc2)=C(CN2CCN(c3ccc(C(=O)NS(=O)(=O)c4ccc(N[C@H](CCN5CCOCC5)CSc5ccccc5)c(S(=O)(=O)C(F)(F)F)c4)cc3)CC2)C1 at 2 µM | 192 | - | 243 | 1380 | 74.1 | 1300 | 1090 | 417 | 455 | 262 | 313 | 948 | 389 | 946 | 6050 |
| C[C@@H]1CCN(C(=O)CC#N)C[C@@H]1N(C)c1ncnc2[nH]ccc12 at 5 µM | 89.2 | - | 237 | 431 | 88.4 | 232 | 1260 | 871 | 67.1 | - | 193 | 107 | 165 | 291 | 407 |
| C[C@@H](N)c1ccc(C(=O)Nc2ccnc3[nH]ccc23)cc1 at 2 µM | 118 | - | 100 | 1240 | 127 | 825 | 504 | 77.2 | 596 | 54.5 | 362 | 377 | 154 | 287 | 1470 |
| C[C@]1(c2nc3c(C(N)=O)cccc3[nH]2)CCCN1 at 7 µM | 129 | - | 87.0 | 685 | 96.2 | 540 | 195 | 375 | 148 | 121 | 174 | 224 | 168 | 260 | 261 |
| O=C(CCCCCCC(=O)Nc1ccccc1)NO at 0.4 µM | 157 | - | 112 | 221 | 156 | 425 | 352 | 76.3 | 155 | - | 118 | 298 | 130 | 71.5 | 725 |
| C=CCn1c(=O)c2cnc(Nc3ccc(N4CCN(C)CC4)cc3)nc2n1-c1cccc(C(C)(C)O)n1 at 0.1 µM | 202 | - | 67.3 | 1310 | 68.0 | 484 | 474 | 239 | 570 | - | 163 | 172 | 625 | 94.8 | 4610 |
| COc1cc([C@@H]2c3cc4c(cc3[C@@H](O[C@@H]3O[C@@H]5CO[C@@H](C)O[C@H]5[C@H](O)[C@H]3O)[C@H]3COC(=O)[C@H]23)OCO4)cc(OC)c1O at 0.1 µM | 121 | - | 130 | 895 | 118 | 460 | 529 | 202 | 240 | 365 | 230 | 47.8 | 94.7 | 190 | 4040 |
| CCCCCCCCc1ccc(CCC(N)(CO)CO)cc1 at 10 µM | 2040 | - | 256 | 2890 | 2970 | 15100 | 349 | 455 | 2930 | 42.7 | 3830 | 619 | 980 | 6140 | 778 |
| CS(=O)(=O)CCNCc1ccc(-c2ccc3ncnc(Nc4ccc(OCc5cccc(F)c5)c(Cl)c4)c3c2)o1 at 4 µM | 265 | - | 220 | 1940 | 119 | 376 | 1030 | 253 | 205 | 1200 | 144 | 817 | 150 | 3100 | 986 |
| COc1ccc(COc2ccc(Cc3cnc(N)nc3N)cc2OC)cc1 at 5 µM | 106 | 141 | 179 | 120 | 145 | 73.8 | 93.6 | 146 | 115 | 61.7 | 58.3 | 65.7 | 53.4 | 91.1 | 197 |
| CC1(C)NC(=O)N(c2ccc([N+](=O)[O-])c(C(F)(F)F)c2)C1=O at 5 µM | 99.9 | - | 103 | 309 | 42.0 | 155 | 262 | 148 | 62.5 | - | 115 | 210 | 171 | 72.5 | 371 |
| CCN(CC)CCCCNc1ncc2cc(-c3cc(OC)cc(OC)c3)c(NC(=O)NC(C)(C)C)nc2n1 at 0.5 µM | 102 | 34.4 | 240 | 1280 | 144 | 779 | 299 | 164 | 148 | 247 | 161 | 207 | 25.5 | 158 | 331 |
| CN(c1ncccc1CNc1nc(Nc2ccc3c(c2)CC(=O)N3)ncc1C(F)(F)F)S(C)(=O)=O at 0.4 µM | 109 | - | 355 | 1070 | 126 | 502 | 888 | 149 | 179 | 137 | 258 | 510 | 102 | 297 | 3600 |
| COc1cc(N2CCC(N3CCN(C)CC3)CC2)ccc1Nc1ncc(Cl)c(Nc2ccccc2S(=O)(=O)C(C)C)n1 at 0.4 µM | 89.3 | 133 | 124 | 1020 | 94.3 | 1200 | 1650 | 127 | 227 | 231 | 170 | 204 | 69.8 | 221 | 740 |
| CN1CCN(c2ccc3nc(-c4c(N)c5c(F)cccc5[nH]c4=O)[nH]c3c2)CC1 at 0.5 µM | 122 | - | 248 | 799 | 42.5 | 188 | 118 | 125 | 183 | 130 | 128 | 142 | 139 | 282 | 1850 |
| C=CCNC1=C2C[C@@H](C)C[C@H](OC)[C@H](O)[C@@H](C)/C=C(\C)[C@H](OC(N)=O)[C@@H](OC)/C=C\C=C(/C)C(=O)NC(=CC1=O)C2=O at 0.01 µM | 249 | - | 124 | 830 | 61.0 | 378 | 821 | 205 | 276 | 114 | 253 | 300 | 101 | 1070 | 1300 |
| Cn1c(Nc2ccc(C(F)(F)F)cc2)nc2cc(Oc3ccnc(-c4ncc(C(F)(F)F)[nH]4)c3)ccc21 at 0.4 µM | 231 | - | 235 | 1320 | 76.0 | 275 | 1350 | 138 | 538 | 297 | 291 | 383 | 53.2 | 1230 | 664 |
| CC(=O)c1c(C)c2cnc(Nc3ccc(N4CCNCC4)cn3)nc2n(C2CCCC2)c1=O at 0.2 µM | 116 | - | 150 | 669 | 135 | 298 | 565 | 139 | 201 | 43.3 | 74.4 | 146 | 136 | 399 | 2340 |
| Cn1cc(/C=C2\C(=O)Nc3cccnc32)c2ccccc21 at 2 µM | 133 | 201 | 55.0 | 404 | 127 | 38.6 | 117 | 90.5 | 174 | 57.9 | 148 | 70.4 | 76.0 | 96.1 | 415 |

For reference, 2 entries once more:

Second drug,WM3619,501mel,IST-MEL1,A2058,RVH-421,SK-MEL-2,WM451Lu,COLO 800,SK-MEL-30,A375,RPMI-7951,IPC-298,LOX IMVI,WM115,SK-MEL-5
CCc1ccc(CCOc2ccc(CC3SC(=O)NC3=O)cc2)nc1 (centres undefined) at 10 µM,85.5,155,133,971,249,536,238,74.7,83.0,186,152,272,124,132,1230
O=C(CCCCCCC(=O)Nc1ccccc1)NO at 0.4 µM,157,-,112,221,156,425,352,76.3,155,-,118,298,130,71.5,725